PubChem BioAssay AID1224828, NIAID | 2016

Test: 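Find genes required for NF-kappaB p65 moving into the nucleus after LPS in mouse macrophages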 (primary screen)
System: mouse RAW264.7 G9 macrophage reporter cells (GFP-p65, Tnf promoter-mCherry)
Reagent: siRNA pool against mouse genes, 100 nM
Duration: 2 days siRNA transfection, then 40 min LPS before fixation
Conditions: LPS (Salmonella minnesota R595) at 10 ng/ml
Measured: 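Imaged p65 nuclear translocation ratio, normalised to the plate median, converted to robust z-scores and averaged across two replicates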
Reading the numbers: p65 translocation robust z-score: higher = more nuclear NF-kappaB p65 after LPS than the plate median; nuclear/cytoplasmic p65 ratio: higher = more nuclear NF-kappaB p65
Hit rule: 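Active if robust z is above 3.3 (negative regulators) or below -1.56, the Tlr4 control median (positive regulators); activity score 50 or more; control wells not called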
Calls: active = hit (p65 shift raised or lowered); inactive = no clear change
This is one part, drawn at random, of about 17,000 reagents tested. 762 of all reagents (4.5%) count as active. 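Active calls include both raised and lowered p65 entry, mostly lowered; wells with fewer than 50 cells lack a z-score.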 The raw values are shown without normalisation.

Nyap2 (GeneID 241134) gave p65 translocation robust z-score 1.51; nuclear/cytoplasmic p65 ratio, rep 1 = 1.61; nuclear/cytoplasmic p65 ratio, rep 2 = 1.76; low cell count flag enough cells to score; inactive.
After knock-down of Grem1 (GeneID 23892) the results were p65 translocation robust z-score 1.27; nuclear/cytoplasmic p65 ratio, rep 1 = 1.86; nuclear/cytoplasmic p65 ratio, rep 2 = 1.7; low cell count flag enough cells to score; inactive.
Silencing of Ppp1r8 (GeneID 100336) resulted in: p65 translocation robust z-score 0.95; nuclear/cytoplasmic p65 ratio, rep 1 = 1.73; nuclear/cytoplasmic p65 ratio, rep 2 = 1.78; low cell count flag enough cells to score; inactive.
With knock-down of Scd4 (GeneID 329065), the screen gave p65 translocation robust z-score 0.37; nuclear/cytoplasmic p65 ratio, rep 1 = 1.4; nuclear/cytoplasmic p65 ratio, rep 2 = 1.31; low cell count flag enough cells to score; inactive.
Silencing of Plgrkt (GeneID 67759) gave: p65 translocation robust z-score -1.72; nuclear/cytoplasmic p65 ratio, rep 1 = 1.25; nuclear/cytoplasmic p65 ratio, rep 2 = 1.23; low cell count flag enough cells to score; active.
For Kcna1 (GeneID 16485), the values are p65 translocation robust z-score -0.4; nuclear/cytoplasmic p65 ratio, rep 1 = 1.44; nuclear/cytoplasmic p65 ratio, rep 2 = 1.31; low cell count flag enough cells to score; inactive.
Depletion of Or1j19 (GeneID 258946) gave: nuclear/cytoplasmic p65 ratio, rep 1 = 1.58; nuclear/cytoplasmic p65 ratio, rep 2 = 1.25; low cell count flag fewer than 50 cells per well; well left out of scoring; inactive.
Depletion of Syne3 (GeneID 212073) resulted in: nuclear/cytoplasmic p65 ratio, rep 1 = 1.12; nuclear/cytoplasmic p65 ratio, rep 2 = 1.14; low cell count flag fewer than 50 cells per well; well left out of scoring; inactive.
With knock-down of Pum3 (GeneID 52874), the screen gave p65 translocation robust z-score -0.5; nuclear/cytoplasmic p65 ratio, rep 1 = 1.43; nuclear/cytoplasmic p65 ratio, rep 2 = 1.55; low cell count flag enough cells to score; inactive.
With knock-down of Or51r1 (GeneID 259108), the record shows p65 translocation robust z-score -0.16; nuclear/cytoplasmic p65 ratio, rep 1 = 1.25; nuclear/cytoplasmic p65 ratio, rep 2 = 1.25; low cell count flag enough cells to score; inactive.
Ubap1 (GeneID 67123) gave p65 translocation robust z-score -0.32; nuclear/cytoplasmic p65 ratio, rep 1 = 1.51; nuclear/cytoplasmic p65 ratio, rep 2 = 1.42; low cell count flag enough cells to score; inactive.
Depletion of Nmt2 (GeneID 18108) came out at: p65 translocation robust z-score 1.66; nuclear/cytoplasmic p65 ratio, rep 1 = 1.96; nuclear/cytoplasmic p65 ratio, rep 2 = 1.78; low cell count flag enough cells to score; inactive.
For H1f2 (GeneID 50708), the entry reads p65 translocation robust z-score -0.45; nuclear/cytoplasmic p65 ratio, rep 1 = 1.17; nuclear/cytoplasmic p65 ratio, rep 2 = 1.33; low cell count flag enough cells to score; inactive.
Against Nexn (GeneID 68810) the deposit lists p65 translocation robust z-score -0.18; nuclear/cytoplasmic p65 ratio, rep 1 = 1.76; nuclear/cytoplasmic p65 ratio, rep 2 = 1.5; low cell count flag enough cells to score; inactive.
For Amd1 (GeneID 11702), the values are p65 translocation robust z-score -1.13; nuclear/cytoplasmic p65 ratio, rep 1 = 1.46; nuclear/cytoplasmic p65 ratio, rep 2 = 1.49; low cell count flag enough cells to score; inactive.
With knock-down of Cyld (GeneID 74256) the results were p65 translocation robust z-score -0.29; nuclear/cytoplasmic p65 ratio, rep 1 = 1.38; nuclear/cytoplasmic p65 ratio, rep 2 = 1.39; low cell count flag enough cells to score; inactive.
Corin (GeneID 53419) scored p65 translocation robust z-score 1.43; nuclear/cytoplasmic p65 ratio, rep 1 = 1.76; nuclear/cytoplasmic p65 ratio, rep 2 = 2.04; low cell count flag enough cells to score; inactive.
With knock-down of Prss35 (GeneID 244954) the results were p65 translocation robust z-score -0.65; nuclear/cytoplasmic p65 ratio, rep 1 = 1.32; nuclear/cytoplasmic p65 ratio, rep 2 = 1.33; low cell count flag enough cells to score; inactive.
Cd2bp2 (GeneID 70233) gave p65 translocation robust z-score 0.74; nuclear/cytoplasmic p65 ratio, rep 1 = 1.7; nuclear/cytoplasmic p65 ratio, rep 2 = 1.35; low cell count flag enough cells to score; inactive.
For Pik3r2 (GeneID 18709), the entry reads p65 translocation robust z-score -0.09; nuclear/cytoplasmic p65 ratio, rep 1 = 1.67; nuclear/cytoplasmic p65 ratio, rep 2 = 1.37; low cell count flag enough cells to score; inactive.
Silencing of Clu (GeneID 12759) came out at: p65 translocation robust z-score 0.22; nuclear/cytoplasmic p65 ratio, rep 1 = 1.52; nuclear/cytoplasmic p65 ratio, rep 2 = 1.38; low cell count flag enough cells to score; inactive.

Individual results from above.
Under “nuclear/cytoplasmic p65 ratio, rep 2”, Nexn (GeneID 68810) reads 1.5
Under “nuclear/cytoplasmic p65 ratio, rep 2”, Pum3 (GeneID 52874) reads 1.55
